Binding data for two molecules are collected here from paper PMC4823097.

Sequences of proteins named here, by UniProt entry; tags and fusion partners are left off.
UniProt O60566: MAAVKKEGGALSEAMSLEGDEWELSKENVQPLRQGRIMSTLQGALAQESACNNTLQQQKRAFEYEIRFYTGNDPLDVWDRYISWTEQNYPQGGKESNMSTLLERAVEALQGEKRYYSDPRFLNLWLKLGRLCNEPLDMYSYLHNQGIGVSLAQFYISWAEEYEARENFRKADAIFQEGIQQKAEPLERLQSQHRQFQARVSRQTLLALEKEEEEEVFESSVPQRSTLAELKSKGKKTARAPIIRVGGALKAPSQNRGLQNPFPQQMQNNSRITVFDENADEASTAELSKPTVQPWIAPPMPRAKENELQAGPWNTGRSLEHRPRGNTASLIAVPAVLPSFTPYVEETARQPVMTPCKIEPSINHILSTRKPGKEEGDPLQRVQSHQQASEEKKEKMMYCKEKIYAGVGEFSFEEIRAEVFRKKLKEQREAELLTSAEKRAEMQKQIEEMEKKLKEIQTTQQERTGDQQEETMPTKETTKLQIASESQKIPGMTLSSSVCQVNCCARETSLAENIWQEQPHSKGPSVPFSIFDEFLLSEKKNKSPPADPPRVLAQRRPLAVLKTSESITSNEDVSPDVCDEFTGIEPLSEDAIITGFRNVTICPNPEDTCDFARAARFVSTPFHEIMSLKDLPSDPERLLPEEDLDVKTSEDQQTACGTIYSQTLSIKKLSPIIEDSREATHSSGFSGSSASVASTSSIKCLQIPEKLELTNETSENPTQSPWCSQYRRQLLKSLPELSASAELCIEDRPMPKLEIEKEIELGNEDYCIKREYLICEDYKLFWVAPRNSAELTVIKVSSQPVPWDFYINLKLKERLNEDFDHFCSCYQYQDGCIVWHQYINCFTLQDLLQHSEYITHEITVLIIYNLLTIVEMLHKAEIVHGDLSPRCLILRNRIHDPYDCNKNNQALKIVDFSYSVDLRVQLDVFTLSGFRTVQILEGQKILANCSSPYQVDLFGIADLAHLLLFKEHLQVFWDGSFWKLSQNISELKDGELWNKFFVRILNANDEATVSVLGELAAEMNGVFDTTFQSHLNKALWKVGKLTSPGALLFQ

The target of assay [1] is T1, Myc-tagged wild-type Mps1 (human) (UniProt P33981).
T1 sequence: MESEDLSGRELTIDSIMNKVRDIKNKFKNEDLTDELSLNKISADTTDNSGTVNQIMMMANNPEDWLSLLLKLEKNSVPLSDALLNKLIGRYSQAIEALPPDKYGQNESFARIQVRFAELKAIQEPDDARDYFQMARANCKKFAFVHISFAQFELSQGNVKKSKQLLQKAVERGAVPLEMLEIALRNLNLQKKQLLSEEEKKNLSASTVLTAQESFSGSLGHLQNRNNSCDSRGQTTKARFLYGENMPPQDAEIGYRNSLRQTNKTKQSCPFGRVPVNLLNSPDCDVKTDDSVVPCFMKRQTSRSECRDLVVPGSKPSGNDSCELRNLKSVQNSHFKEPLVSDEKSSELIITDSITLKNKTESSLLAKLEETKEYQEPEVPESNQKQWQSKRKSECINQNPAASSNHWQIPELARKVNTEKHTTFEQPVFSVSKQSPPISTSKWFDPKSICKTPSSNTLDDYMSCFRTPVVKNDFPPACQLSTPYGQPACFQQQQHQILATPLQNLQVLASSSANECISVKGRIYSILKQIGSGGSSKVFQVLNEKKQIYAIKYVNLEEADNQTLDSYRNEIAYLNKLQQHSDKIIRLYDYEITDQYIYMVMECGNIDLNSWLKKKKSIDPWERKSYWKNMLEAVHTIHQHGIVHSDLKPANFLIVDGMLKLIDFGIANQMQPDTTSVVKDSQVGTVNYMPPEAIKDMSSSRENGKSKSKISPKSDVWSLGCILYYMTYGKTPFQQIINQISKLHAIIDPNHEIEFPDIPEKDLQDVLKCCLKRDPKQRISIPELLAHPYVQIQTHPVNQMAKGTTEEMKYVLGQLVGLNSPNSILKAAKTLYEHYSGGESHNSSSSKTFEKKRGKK
Description: co-IP; HeLa cells transfected with Myc-Mps1-wt, Myc-Mps1-mut or pcDNA3 vector for 48 h, then nocodazole for 16 h; native lysates immunoprecipitated with antibody to Myc; blotted for Myc-tag and BubR1.

Assay [2] has as its target T2, Myc-tagged SUMO-resistant 4R mutant of Mps1 (human) (UniProt P33981).
T2 sequence: T1 sequence with K71R, K287R, K367R, K471R
Described as above.

The target of assay [3] is BubR1 (human (endogenous in HeLa)) (UniProt O60566). The assay is described as follows: co-IP; HeLa cells asynchronous or treated with nocodazole for 16 h; native lysates immunoprecipitated with antibody to BubR1 (or Mps1, or control IgG), protein G-agarose, 4°C overnight; blotted for Mps1.

Where a chain is given by its changes, count along the chain named. These are yes or no findings as the source states them, for the method shown. Binding seen in cells or lysates may run through a third protein. Some binding calls cover weakened binding; strength is not graded here. For part of these data: Tags and fused reporters may be left off the sequences shown.

Consider BubR1 (from UniProt O60566 1-1050), for which the binding entry in assay [1] and in assay [2] was “binds” throughout.

B1: Mps1 (mono-polar spindle 1) (protein, UniProt P33981-2 1-856)
chain: T1 sequence
In the case of B1, in assay [3], the binding result was “binds”.
